In the supplement of paper PMC7666118:
This is one part of the list.

Protein sequences, listed by entry. Tags and fused reporters are not part of them. Lines headed by an entry give the natural chain unless they say otherwise; changes in a name come on top.
UniProt Q96IU4: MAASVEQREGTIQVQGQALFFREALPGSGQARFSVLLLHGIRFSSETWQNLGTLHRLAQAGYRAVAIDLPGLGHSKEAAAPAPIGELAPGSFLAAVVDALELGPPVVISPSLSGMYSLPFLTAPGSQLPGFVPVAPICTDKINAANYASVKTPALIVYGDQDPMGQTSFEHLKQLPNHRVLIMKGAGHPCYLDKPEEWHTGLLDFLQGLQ
UniProt P12814, whole entry: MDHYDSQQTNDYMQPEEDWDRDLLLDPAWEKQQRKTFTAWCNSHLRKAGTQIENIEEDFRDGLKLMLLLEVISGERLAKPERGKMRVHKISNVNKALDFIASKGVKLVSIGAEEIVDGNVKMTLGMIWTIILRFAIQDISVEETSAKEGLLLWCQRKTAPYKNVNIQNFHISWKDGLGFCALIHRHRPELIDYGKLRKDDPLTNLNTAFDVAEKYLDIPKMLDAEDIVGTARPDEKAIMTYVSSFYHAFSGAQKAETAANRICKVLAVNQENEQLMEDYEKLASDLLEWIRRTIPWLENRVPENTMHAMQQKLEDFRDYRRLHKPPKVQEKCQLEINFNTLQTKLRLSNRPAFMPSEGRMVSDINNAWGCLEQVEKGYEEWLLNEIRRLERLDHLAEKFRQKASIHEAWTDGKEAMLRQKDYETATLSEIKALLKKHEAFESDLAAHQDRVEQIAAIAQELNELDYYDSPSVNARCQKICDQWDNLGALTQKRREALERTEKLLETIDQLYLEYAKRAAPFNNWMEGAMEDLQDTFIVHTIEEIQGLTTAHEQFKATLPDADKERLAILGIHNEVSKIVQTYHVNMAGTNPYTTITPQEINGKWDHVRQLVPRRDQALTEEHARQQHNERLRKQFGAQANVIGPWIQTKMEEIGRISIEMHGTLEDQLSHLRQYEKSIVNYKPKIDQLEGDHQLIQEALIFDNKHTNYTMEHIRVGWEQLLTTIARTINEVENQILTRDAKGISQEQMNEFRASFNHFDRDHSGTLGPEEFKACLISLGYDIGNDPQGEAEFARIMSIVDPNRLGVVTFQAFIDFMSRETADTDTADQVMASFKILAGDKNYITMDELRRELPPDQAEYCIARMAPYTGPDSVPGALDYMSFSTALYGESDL
UniProt P09110: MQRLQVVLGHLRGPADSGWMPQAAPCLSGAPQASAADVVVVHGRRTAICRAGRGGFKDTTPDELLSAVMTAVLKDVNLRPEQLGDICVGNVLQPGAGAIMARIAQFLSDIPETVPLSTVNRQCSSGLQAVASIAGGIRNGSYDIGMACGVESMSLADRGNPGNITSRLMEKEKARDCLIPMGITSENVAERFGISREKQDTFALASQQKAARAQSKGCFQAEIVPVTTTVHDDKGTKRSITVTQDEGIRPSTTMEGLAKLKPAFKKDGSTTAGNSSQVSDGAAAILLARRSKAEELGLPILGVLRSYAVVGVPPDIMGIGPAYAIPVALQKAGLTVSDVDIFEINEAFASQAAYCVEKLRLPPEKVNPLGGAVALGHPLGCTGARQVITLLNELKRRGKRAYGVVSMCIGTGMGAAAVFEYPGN

compound: COc1ccc(Cn2ccc3cc(C)c(C(=O)NO)cc32)cc1; experiment: dose-dependent thermal stabilisation call (2D-TPP, DLPTP, 10% FDR) (binary (1 = stabilised)); higher = stabilised by the compound; conditions: system: HL-60 intact cells; concentration range 0.04-10 µM
Protocol: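 2D thermal proteome profiling in intact HL-60 cells treated with BRD-3811 (0, 0.04, 0.29, 2, 10 uM) for 90 min at 37 C, then heated 3 min at one of 12 temperatures (42-63.9 C). Soluble protein was quantified by TMT10 MS. The value is the DLPTP call of the paper: dose-dependent thermal stabilisation over all temperatures at 10% FDR (F-test of a dose-response against a flat model); one experiment, one call per tested protein.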

Target | dose-dependent thermal stabilisation call
ABHD14B (UniProt Q96IU4) | inactive: 0
ACTN1 (UniProt P12814) | inactive: 0
ACAA1 (UniProt P09110) | active: 1
